# Percent effect of library compounds

Toxoplasma: 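Assay of Toxoplasma gondii numbers, read through their beta-galactosidase reporter with a colour substrate. Tested at 10 µM. Higher reads as fewer parasites (inferred from which compounds were picked for retests). About 67,000 compounds were tested under these conditions; 0.38% (about 260) showed 50% or more at least once.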
T. brucei: 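Whole-parasite assay of Trypanosoma brucei over 72 hours; the read-out is not stated. Compounds at 30 µM. Direction is inferred from retests: higher values go with stronger inhibition. Values scatter widely below zero; nearly all retest evidence comes from the higher of the two concentrations used. Size under these conditions: about 64,000 compounds, about 940 of them at 50% or above in at least one test.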
Leishmania in macrophages: 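Cell assay of Leishmania donovani living inside macrophages; the read-out is not stated. Concentration: 30 µM. The record gives no direction; compounds that gave an IC50 in retests scored well above the rest, so higher reads as stronger inhibition. About 69,000 compounds were tested under these conditions; 1.5% (about 1,000) showed 50% or more at least once.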

Results are given as percent effect. The controls that fix the scale are not given in the record; negative values are as filed. Compounds were drawn at random from those tested, without regard to their results. Two or more numbers in one place are separate tests of the same structure; such repeats can differ widely.

{"compound": "COc1ccc(C2C3=C(CCCC3=O)Nc3nc(SC)nc(N)c32)cc1", "stereo": "stereo unspecified", "Toxoplasma": -17.8, "T. brucei": -14.58, "Leishmania in macrophages": -6.073}
{"compound": "CSc1ccc(C(=O)N2CCCC(Nc3ccc(F)cc3)C2)cc1", "stereo": "stereo unspecified", "Toxoplasma": 9.976, "T. brucei": 63.86, "Leishmania in macrophages": -18.57}
{"compound": "O=C(O)C(F)(F)F.O=C(O)C(F)(F)F.[H][C@@]12COC[C@@H](CC(=O)NCc3cccnc3)[C@]1([H])CN(C1CCC1)C2", "Toxoplasma": 9.029, "T. brucei": 12.19, "Leishmania in macrophages": 22.84}
{"compound": "CS(=O)(=O)NC1(CCc2ccc(NC(=O)C3CC3)nc2)CCCCC1", "Toxoplasma": 22.39, "T. brucei": -17.28, "Leishmania in macrophages": -7.876}
{"compound": "[H][C@@]12CCCO[C@]1([H])[C@H](Oc1cccnc1)CN2C(=O)Cc1ccccn1", "Toxoplasma": 5.997, "T. brucei": 2.912, "Leishmania in macrophages": 10.46}
{"compound": "CCOCCCC(=O)N1CCCC1c1nc(-c2ccccc2F)c[nH]1", "stereo": "stereo unspecified", "Toxoplasma": 15.31, "T. brucei": -2.784, "Leishmania in macrophages": 10.41}
{"compound": "Cc1nn(C)c2ncc(S(=O)(=O)N3CCCC(C(N)=O)C3)cc12", "stereo": "stereo unspecified", "Toxoplasma": 5.858, "T. brucei": -26.1, "Leishmania in macrophages": 3.573}
{"compound": "CCOC(=O)c1sc2ccsc2c1CNC(=O)C(C)OC", "stereo": "stereo unspecified", "Toxoplasma": 8.603, "Leishmania in macrophages": 5.308}
{"compound": "COc1ccc(NC(=O)Cn2nc(C)ccc2=O)cc1OC", "Toxoplasma": 0, "T. brucei": 21.18, "Leishmania in macrophages": -4.783}
{"compound": "Cc1ccc(S(=O)(=O)N2Cc3c(CN(C)C)nn(C)c3C2)cc1", "Toxoplasma": -4.402, "T. brucei": -63.3, "Leishmania in macrophages": "14.38 and 4.416"}
{"compound": "CCNC(=O)NC(=O)CNC(C)(CC)c1nc(C)cs1", "stereo": "stereo unspecified", "Toxoplasma": 1.971, "T. brucei": -16.98, "Leishmania in macrophages": 31.27}
{"compound": "COc1ncnc2c1CCN(c1cccc(F)c1)CC2", "Toxoplasma": -3.706, "T. brucei": -21.38, "Leishmania in macrophages": 3.224}
{"compound": "COc1ccc(CN2CCn3cc(CNC(=O)CC4CC4)nc3C2)cc1.O=C(O)C(F)(F)F", "Toxoplasma": -3.566, "T. brucei": -24.85, "Leishmania in macrophages": -3.07}
{"compound": "Cn1cc(CN2CCCN(C(=O)c3cc[nH]n3)CC2)cn1", "Toxoplasma": -21.43, "T. brucei": -15.08, "Leishmania in macrophages": -8.23}
{"compound": "CSc1ccccc1CN1CCCn2nc(CNC(=O)N(C)C)cc2C1", "Toxoplasma": 3.065, "T. brucei": -53.7, "Leishmania in macrophages": 22.59}
{"compound": "COCC1CN(Cc2ccc(C)o2)Cc2nnn(CC3CC3)c21.O=C(O)C(F)(F)F", "stereo": "stereo unspecified", "Toxoplasma": 14.92, "T. brucei": -24.48, "Leishmania in macrophages": 6.774}
{"compound": "O=C(CSc1nncs1)N1CCN(Cc2ccc(Cl)s2)CC1", "Toxoplasma": 0.8758, "T. brucei": -137.6, "Leishmania in macrophages": 41.49}
{"compound": "CCNC(=O)[C@@H]1C[C@H](N)CN1c1cc(C(F)(F)F)nc(N(C)C)n1", "Toxoplasma": 2.326, "T. brucei": -49.66, "Leishmania in macrophages": -13.79}
{"compound": "O=C(NCC1CC1)C1CCC2(CCN(C(=O)c3cccnc3)CC2)O1.O=C(O)C(F)(F)F", "stereo": "stereo unspecified", "Toxoplasma": -2.707, "T. brucei": -34.45, "Leishmania in macrophages": -0.4109}
{"compound": "CN(C)c1nc2c(c(N(C)Cc3n[nH]c4c3CCCCC4)n1)CCNC2", "Toxoplasma": -33.15, "T. brucei": -16.93, "Leishmania in macrophages": -2.056}
{"compound": "CC(=O)N1CCC(c2cnc(-c3c(C)nn(C)c3C)cn2)CC1", "Toxoplasma": -5.25, "T. brucei": 12.22, "Leishmania in macrophages": 18.7}
{"compound": "[H][C@@]12C[C@@H](C(=O)NCc3ccco3)CN(c3ncc(F)cn3)[C@]1([H])CCO2", "Toxoplasma": 4.898, "T. brucei": -8.986, "Leishmania in macrophages": 0.9385}
{"compound": "c1ccc(-c2ncc(CN3CCCCC3CCn3cccn3)cn2)nc1", "stereo": "stereo unspecified", "Toxoplasma": 1.441, "T. brucei": 8.261, "Leishmania in macrophages": 37.95}
{"compound": "CN1CCCC(c2cccc(-c3cccc(Cl)c3)n2)C1", "stereo": "stereo unspecified", "Toxoplasma": 19.86, "T. brucei": -10.28, "Leishmania in macrophages": -28.33}
{"compound": "COc1ccc(C(=O)NC[C@H]2COCc3nc4cc(C)ccc4n32)cc1", "Toxoplasma": -5.03, "T. brucei": 101.3, "Leishmania in macrophages": 9.887}
{"compound": "CCn1ncc(C(=O)NCCc2nc(-c3cccnc3)n[nH]2)c1C", "Toxoplasma": -20.92, "T. brucei": -6.61, "Leishmania in macrophages": 15.46}
{"compound": "Cc1cnc(N2Cc3nccn3CC(Cn3nc(C)nc3C)C2)nc1", "stereo": "stereo unspecified", "Toxoplasma": 0.3625, "T. brucei": -158.2, "Leishmania in macrophages": 17.84}
{"compound": "[H][C@@]12CS(=O)(=O)C[C@]1([H])N(C(=O)c1ccc(C)cc1F)CCN2CCOC", "Toxoplasma": 10.85, "T. brucei": -5.747, "Leishmania in macrophages": 13.2}
{"compound": "Cc1nn(C)c(C)c1C1CCCN1C(=O)c1ccc(CN(C)C)cc1", "stereo": "stereo unspecified", "Toxoplasma": -2.262, "T. brucei": -31.66, "Leishmania in macrophages": 21.7}
{"compound": "Cc1cc(F)ccc1S(=O)(=O)NCc1[nH]ncc1Br", "Toxoplasma": 0.5963, "T. brucei": 44.02, "Leishmania in macrophages": -47.67}

Once more, the final 4:

Compound,Toxoplasma,T. brucei,Leishmania in macrophages
Cc1cnc(N2Cc3nccn3CC(Cn3nc(C)nc3C)C2)nc1 (stereo unspecified),0.3625%,-158.2%,17.84%
[H][C@@]12CS(=O)(=O)C[C@]1([H])N(C(=O)c1ccc(C)cc1F)CCN2CCOC,10.85%,-5.747%,13.2%
Cc1nn(C)c(C)c1C1CCCN1C(=O)c1ccc(CN(C)C)cc1 (stereo unspecified),-2.262%,-31.66%,21.7%
Cc1cc(F)ccc1S(=O)(=O)NCc1[nH]ncc1Br,0.5963%,44.02%,-47.67%

From ChEMBL document CHEMBL3988442, “University of Dundee, Small-Polar-MMV Screening Library” (2021).